Results are given in words; binding and its absence hold for the method and conditions named. Binding seen in cells or lysates may run through a third protein. Some results given as binding are weak or reduced against the parent protein; the word gives no strength.
Tests used:
[1] = target: T1, FKBPL (Homo sapiens (Human)) (UniProt Q9UIM3); assay: co-immunoprecipitation (FIG. 3a)
T1 sequence: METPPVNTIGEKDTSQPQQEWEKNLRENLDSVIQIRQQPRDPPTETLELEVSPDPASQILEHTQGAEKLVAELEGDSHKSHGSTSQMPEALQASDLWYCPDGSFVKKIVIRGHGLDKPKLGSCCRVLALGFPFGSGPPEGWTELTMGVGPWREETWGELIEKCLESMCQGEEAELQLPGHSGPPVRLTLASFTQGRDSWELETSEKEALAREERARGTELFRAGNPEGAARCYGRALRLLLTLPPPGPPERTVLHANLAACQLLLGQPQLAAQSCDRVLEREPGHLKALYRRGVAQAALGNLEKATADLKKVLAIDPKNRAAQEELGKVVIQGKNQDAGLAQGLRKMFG

Sequences of proteins named here, by UniProt entry; tags and fusion partners are left off.
UniProt Q9BYM8: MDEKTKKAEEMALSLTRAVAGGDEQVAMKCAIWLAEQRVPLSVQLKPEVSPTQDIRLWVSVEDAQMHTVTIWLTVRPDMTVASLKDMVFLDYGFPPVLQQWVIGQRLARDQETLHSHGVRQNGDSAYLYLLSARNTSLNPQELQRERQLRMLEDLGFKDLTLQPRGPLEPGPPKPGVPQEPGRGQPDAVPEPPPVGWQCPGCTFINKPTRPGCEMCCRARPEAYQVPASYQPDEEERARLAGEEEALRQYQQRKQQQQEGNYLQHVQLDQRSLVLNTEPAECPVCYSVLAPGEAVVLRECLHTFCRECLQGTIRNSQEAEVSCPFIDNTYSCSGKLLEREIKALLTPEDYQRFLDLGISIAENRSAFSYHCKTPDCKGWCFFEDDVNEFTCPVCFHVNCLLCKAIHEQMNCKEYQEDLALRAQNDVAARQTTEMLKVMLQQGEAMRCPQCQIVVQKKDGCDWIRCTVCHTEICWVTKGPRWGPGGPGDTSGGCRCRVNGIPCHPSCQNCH

[2] = target: T1, FKBPL (Homo sapiens (Human)); assay: co-immunoprecipitation (FIG. 3)
[3] = target: T1, FKBPL (Homo sapiens (Human)); assay: co-immunoprecipitation from FKBPL stable 3.1D2 cells transfected with pcDNA3.1-Myc/XAP3, western blot

Measured: binding

Myc/XAP3 (pcDNA3.1-Myc/XAP3) (from UniProt Q9BYM8 1-510)
binds: all assays above
